Experimental data published in the supplement of paper PMC12067093, “Discovery and optimisation of a covalent ligand for TRIM25 and its application to targeted protein ubiquitination” (Chemical Science, 2025).
The list shows a part of the results.

Sequences of proteins named here, by UniProt entry; tags and fusion partners are left off. A change or cut given only in a name is not applied to a line headed by its entry.
UniProt Q14202: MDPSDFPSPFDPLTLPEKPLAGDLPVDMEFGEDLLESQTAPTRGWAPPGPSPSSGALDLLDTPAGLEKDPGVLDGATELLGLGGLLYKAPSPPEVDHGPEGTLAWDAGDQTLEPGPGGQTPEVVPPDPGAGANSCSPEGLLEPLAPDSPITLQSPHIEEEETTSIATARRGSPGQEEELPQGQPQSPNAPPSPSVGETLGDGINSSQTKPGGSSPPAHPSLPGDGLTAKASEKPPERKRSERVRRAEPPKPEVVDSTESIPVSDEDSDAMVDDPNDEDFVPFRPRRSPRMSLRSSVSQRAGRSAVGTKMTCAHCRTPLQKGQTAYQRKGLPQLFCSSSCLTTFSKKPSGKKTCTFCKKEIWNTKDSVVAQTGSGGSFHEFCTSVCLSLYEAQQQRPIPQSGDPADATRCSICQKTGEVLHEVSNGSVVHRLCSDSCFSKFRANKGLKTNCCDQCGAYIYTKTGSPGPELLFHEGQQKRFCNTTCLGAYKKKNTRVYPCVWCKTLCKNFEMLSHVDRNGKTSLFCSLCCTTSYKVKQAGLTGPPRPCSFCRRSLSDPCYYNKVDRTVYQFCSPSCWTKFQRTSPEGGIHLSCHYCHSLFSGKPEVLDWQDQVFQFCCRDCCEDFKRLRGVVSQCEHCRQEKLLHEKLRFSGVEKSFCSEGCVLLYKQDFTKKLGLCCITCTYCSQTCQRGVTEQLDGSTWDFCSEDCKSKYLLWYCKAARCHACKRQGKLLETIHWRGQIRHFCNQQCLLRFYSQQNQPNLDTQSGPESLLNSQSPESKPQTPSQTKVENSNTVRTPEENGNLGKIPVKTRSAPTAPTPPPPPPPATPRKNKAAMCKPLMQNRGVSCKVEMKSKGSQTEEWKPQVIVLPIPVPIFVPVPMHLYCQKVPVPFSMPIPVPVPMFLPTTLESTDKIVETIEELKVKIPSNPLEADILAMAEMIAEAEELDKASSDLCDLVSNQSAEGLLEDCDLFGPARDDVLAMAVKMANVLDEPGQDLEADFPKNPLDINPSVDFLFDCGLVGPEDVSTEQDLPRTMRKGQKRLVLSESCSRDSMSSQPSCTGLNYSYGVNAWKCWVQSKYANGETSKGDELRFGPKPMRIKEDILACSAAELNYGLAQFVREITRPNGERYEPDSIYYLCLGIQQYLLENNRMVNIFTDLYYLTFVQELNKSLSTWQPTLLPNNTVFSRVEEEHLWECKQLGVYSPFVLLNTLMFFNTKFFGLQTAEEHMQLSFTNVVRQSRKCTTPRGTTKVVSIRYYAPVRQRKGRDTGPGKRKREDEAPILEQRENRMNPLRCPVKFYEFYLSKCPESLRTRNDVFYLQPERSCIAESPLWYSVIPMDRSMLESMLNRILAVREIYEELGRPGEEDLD
UniProt Q96KR1: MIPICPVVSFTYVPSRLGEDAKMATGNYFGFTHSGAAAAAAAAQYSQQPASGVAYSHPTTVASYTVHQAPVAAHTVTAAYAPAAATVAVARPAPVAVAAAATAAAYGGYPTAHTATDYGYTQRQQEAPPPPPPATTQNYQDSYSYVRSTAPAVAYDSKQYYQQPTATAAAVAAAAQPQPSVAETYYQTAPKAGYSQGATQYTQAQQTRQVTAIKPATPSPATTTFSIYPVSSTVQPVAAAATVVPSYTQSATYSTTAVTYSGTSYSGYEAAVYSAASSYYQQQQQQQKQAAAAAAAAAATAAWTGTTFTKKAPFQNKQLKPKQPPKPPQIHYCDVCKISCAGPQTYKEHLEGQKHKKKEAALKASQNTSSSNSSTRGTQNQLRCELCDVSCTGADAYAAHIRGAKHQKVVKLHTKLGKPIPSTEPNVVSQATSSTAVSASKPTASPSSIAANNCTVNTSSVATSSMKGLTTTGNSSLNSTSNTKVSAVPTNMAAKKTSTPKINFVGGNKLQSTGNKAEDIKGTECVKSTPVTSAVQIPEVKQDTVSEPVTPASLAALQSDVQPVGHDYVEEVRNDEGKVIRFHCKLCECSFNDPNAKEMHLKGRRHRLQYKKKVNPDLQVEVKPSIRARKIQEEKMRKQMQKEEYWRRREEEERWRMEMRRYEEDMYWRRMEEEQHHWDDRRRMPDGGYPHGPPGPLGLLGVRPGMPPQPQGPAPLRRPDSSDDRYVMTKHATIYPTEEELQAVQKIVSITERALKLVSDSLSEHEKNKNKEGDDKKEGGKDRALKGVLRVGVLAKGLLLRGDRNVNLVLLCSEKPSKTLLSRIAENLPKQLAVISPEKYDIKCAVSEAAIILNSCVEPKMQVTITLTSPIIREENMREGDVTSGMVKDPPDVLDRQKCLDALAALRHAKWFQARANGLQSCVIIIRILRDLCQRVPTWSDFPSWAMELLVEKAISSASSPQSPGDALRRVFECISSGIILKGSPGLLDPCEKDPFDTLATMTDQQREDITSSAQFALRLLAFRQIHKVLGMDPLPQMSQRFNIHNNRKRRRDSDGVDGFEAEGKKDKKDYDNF
UniProt Q9BQ24: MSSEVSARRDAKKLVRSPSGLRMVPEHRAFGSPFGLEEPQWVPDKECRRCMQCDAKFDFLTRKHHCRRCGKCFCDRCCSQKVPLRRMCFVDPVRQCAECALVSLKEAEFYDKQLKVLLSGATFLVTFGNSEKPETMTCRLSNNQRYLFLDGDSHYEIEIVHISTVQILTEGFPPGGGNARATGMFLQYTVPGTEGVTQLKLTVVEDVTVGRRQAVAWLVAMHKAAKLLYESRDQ
UniProt Q8N1G0: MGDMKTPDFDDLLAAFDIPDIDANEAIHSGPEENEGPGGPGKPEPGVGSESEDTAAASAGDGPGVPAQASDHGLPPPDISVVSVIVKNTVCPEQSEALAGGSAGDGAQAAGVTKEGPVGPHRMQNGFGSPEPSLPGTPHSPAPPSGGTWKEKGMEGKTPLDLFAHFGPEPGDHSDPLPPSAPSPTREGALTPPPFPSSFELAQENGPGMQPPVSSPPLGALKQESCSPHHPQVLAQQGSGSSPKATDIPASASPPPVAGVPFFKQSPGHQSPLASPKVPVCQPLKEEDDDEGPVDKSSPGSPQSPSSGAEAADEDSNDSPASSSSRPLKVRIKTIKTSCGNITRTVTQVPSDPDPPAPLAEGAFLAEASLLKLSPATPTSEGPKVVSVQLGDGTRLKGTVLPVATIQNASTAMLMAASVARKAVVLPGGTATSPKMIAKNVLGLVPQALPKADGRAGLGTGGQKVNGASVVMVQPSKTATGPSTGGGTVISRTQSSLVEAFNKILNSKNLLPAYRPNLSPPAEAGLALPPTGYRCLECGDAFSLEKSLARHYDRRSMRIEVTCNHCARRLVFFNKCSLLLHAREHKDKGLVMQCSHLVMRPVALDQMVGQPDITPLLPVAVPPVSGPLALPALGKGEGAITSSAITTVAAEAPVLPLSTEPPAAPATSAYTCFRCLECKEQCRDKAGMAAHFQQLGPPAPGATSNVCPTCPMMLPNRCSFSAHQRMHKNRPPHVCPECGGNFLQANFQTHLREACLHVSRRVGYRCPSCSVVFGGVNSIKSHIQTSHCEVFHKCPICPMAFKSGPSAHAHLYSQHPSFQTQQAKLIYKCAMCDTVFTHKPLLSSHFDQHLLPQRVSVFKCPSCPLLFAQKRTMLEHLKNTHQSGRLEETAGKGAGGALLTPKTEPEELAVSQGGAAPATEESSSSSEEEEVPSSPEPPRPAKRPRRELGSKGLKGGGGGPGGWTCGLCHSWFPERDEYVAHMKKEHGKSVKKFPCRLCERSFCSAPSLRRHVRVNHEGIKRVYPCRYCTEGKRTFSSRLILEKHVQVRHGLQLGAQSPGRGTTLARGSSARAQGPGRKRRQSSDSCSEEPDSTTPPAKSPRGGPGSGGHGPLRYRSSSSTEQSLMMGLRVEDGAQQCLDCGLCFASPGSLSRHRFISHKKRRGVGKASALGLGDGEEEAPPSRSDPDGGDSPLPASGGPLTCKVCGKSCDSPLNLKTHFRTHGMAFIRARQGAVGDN
UniProt Q5VZL5: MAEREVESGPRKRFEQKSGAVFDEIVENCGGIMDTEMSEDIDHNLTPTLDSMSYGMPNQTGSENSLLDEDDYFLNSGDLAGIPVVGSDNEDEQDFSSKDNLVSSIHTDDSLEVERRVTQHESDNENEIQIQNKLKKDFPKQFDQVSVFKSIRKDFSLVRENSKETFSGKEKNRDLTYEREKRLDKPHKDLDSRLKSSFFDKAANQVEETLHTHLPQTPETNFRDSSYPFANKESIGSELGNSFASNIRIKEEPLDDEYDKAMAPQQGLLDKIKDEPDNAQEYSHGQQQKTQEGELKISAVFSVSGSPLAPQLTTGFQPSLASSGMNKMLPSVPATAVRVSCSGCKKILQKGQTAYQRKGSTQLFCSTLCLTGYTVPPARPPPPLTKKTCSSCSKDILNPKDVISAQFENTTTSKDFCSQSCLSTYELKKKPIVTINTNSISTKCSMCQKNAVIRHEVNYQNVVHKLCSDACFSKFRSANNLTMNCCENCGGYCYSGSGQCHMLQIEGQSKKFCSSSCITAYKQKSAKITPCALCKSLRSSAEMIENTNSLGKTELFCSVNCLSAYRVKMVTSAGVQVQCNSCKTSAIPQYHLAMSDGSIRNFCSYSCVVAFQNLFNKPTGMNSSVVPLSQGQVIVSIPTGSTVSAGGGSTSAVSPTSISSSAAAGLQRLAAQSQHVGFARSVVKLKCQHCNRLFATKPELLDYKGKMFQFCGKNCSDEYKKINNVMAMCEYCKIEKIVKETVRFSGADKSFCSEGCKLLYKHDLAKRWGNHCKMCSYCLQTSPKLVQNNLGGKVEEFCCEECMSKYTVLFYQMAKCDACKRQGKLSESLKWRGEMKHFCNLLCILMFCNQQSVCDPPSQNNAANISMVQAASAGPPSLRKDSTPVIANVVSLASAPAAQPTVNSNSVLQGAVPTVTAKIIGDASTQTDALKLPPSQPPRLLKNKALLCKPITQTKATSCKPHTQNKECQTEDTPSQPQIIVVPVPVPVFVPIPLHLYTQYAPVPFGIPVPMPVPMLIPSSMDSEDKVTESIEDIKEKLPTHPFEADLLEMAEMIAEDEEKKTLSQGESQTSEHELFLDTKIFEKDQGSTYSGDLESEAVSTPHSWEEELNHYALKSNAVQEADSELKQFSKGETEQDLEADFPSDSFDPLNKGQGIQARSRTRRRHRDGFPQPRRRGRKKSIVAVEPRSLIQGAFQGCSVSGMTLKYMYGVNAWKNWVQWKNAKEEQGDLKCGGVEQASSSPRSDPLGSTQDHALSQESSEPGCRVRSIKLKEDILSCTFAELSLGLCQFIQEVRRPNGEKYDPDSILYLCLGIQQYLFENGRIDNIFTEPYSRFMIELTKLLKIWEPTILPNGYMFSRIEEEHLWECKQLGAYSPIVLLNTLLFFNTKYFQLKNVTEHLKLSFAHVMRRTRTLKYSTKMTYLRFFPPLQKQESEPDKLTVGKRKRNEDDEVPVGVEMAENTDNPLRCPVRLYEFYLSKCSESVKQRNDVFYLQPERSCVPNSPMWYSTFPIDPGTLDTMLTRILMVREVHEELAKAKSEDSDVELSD
UniProt Q9UK33: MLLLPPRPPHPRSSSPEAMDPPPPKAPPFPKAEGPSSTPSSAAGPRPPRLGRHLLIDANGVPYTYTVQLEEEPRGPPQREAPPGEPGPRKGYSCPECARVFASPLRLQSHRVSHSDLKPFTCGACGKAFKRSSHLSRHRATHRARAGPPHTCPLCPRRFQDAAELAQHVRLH
UniProt Q86UK7: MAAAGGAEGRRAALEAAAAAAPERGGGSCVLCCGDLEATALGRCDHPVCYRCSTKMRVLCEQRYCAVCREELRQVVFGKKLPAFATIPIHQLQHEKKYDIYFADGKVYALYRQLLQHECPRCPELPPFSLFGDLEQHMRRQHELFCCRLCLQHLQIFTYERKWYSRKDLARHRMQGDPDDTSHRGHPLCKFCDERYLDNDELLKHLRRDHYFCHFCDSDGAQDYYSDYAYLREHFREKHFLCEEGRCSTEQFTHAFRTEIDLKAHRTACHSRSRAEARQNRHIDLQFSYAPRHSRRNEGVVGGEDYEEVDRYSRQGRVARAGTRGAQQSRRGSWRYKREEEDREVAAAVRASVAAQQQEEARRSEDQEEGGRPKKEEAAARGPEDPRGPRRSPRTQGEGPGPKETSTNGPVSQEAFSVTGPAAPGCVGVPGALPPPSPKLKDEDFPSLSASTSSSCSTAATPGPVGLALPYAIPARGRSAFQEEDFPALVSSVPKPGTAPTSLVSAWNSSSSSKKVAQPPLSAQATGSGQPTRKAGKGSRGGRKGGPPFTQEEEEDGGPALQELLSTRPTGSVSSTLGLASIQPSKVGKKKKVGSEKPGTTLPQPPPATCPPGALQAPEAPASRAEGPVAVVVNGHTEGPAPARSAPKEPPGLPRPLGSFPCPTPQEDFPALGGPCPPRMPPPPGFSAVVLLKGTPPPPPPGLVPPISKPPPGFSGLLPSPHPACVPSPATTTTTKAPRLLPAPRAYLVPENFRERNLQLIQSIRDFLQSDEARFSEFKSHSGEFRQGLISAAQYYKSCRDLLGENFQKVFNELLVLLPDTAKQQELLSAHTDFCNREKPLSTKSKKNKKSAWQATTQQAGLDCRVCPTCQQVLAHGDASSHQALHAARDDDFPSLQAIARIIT

Compound: Cc1cc(ccc1-c1ccccc1)C(=O)N1CCCN(CC1)C(=O)CCl [compound 10]
Experiment: probe-labelled cysteine peptide fold change vs DMSO (competition) (log2 fold change); higher = less target engagement (more negative = stronger competition)
Conditions: THP-1, incubation time: 4 h
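Further: competitive profiling in live THP-1 cells: cysteine peptides tagged with an iodoacetamide desthiobiotin (IA-DTB) probe, intensity after compound treatment relative to DMSO-treated cells.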

Target | probe-labelled cysteine peptide fold change (10 µM) | probe-labelled cysteine peptide fold change (50 µM)
ZMYM3_Q14202_1073_CWVQSK (UniProt Q14202) | -0.162 | -0.435
ZFR_Q96KR1_899_CLDALAALR (UniProt Q96KR1) | -0.0904 | -0.0773
ZNF592_Q92610_592_IHVPASGYCCLECGDAFALEK (UniProt Q92610) | -0.0351 | -0.192
ZFR_Q96KR1_387+391_CELCDVSCTGADAYAAHIR (UniProt Q96KR1) | 0.0131 | 0.224
ZNF267_Q14586_218_NYHCNNSEK (UniProt Q14586) | -0.113 | -0.426
ZFYVE21_Q9BQ24_99_QCAECALVSLK (UniProt Q9BQ24) | -0.0573 | -0.384
ZNF217_O75362_641_SAVETQANNLICR (UniProt O75362) | -0.181 | -0.0706
ZNF24_P17028_189_HCDDDGRTENGALAPK (UniProt P17028) | -0.0729 | -0.0347
ZNF316_A6NFI3_920_THTGERPYACANCGR (UniProt A6NFI3) | 0.182 | 0.0601
ZNF296_Q8WUU4_117_CLQTFPLEAITAFMDHK (UniProt Q8WUU4) | 0.142 | 0.552
ZNF76_P36508_342_HHVVHTHCK (UniProt P36508) | -0.115 | -0.0476
ZNF512_Q96ME7_171_GSVSCPTCQAVGR (UniProt Q96ME7) | 0.135 | -0.0282
ZFPM1_Q8IX07_147_QAEPSPALTLLLVDEACWLR (UniProt Q8IX07) | 0.0696 | -0.102
ZNF516_Q92618_1016_TLATCAAGSR (UniProt Q92618) | -0.106 | -0.458
ZNF667_Q5HYK9_146_GHSGKKPLKCNDCGK (UniProt Q5HYK9) | 0.034 | 0.501
ZNF644_Q9H582_152_GSVSLTTGQPVDQPTTESCSTLK (UniProt Q9H582) | -0.148 | -0.122
ZNF687_Q8N1G0_1003_SFCSAPSLR (UniProt Q8N1G0) | -0.121 | 0.0011
ZNF207_O43670_13_QLKPWCWYCNR (UniProt O43670) | 0.0726 | -0.69
ZNF143_P52747_299+304_CSEDNCTK (UniProt P52747) | 0.278 | -0.18
ZMYND11_Q15326_258_DTCHELDELQLCK (UniProt Q15326) | 0.073 | 0.0974
ZMYM4_Q5VZL5_690_CQHCNR (UniProt Q5VZL5) | 0.26 | -0.0447

Target | probe-labelled cysteine peptide fold change (10 µM) | probe-labelled cysteine peptide fold change (50 µM)
ZNF580_Q9UK33_122+125_VSHSDLKPFTCGACGK (UniProt Q9UK33) | 0.0688 | -0.295
ZNF451_Q9Y4E5_741_CLQIMLDK (UniProt Q9Y4E5) | 0.0849 | -0.331
ZMYM3_Q14202_1197_VEEEHLWECK (UniProt Q14202) | 0.148 | -0.0344
ZFY_P08048_549_NFPHICVECGK (UniProt P08048) | -0.0111 | -0.0643
ZNF280D_Q6N043_323_CFSCLK (UniProt Q6N043) | -0.0325 | -4.3e-05
ZNF638_Q14966_1156_ATCDSDFAVETLELETQGEEVK (UniProt Q14966) | -0.26 | 0.513
ZFYVE1_Q9HBF4_71_LKPGHVPYCDLCK (UniProt Q9HBF4) | -0.0474 | -0.684
ZMYM4_Q5VZL5_732_INNVMAMCEYCK (UniProt Q5VZL5) | 0.00185 | -0.422
ZNF592_Q92610_463_ASDSSSPSCSSGPR (UniProt Q92610) | -0.143 | -0.425
ZMIZ1_Q9ULJ6_763_HVQCFDLESYLQLNCER (UniProt Q9ULJ6) | -0.0815 | -0.163
ZFPL1_O95159_35_CIVQSYLQWLQDSDYNPNCR (UniProt O95159) | -0.228 | -0.178
ZNF598_Q86UK7_122_CPELPPFSLFGDLEQHMR (UniProt Q86UK7) | -0.306 | -0.388
ZMYM2_Q9UBW7_872_SCQTDDTWR (UniProt Q9UBW7) | -0.203 | -0.257
ZNF280C_Q8ND82_94_CRDPPSNPVAASPR (UniProt Q8ND82) | -0.112 | -0.00969
ZNF598_Q86UK7_247_CSTEQFTHAFR (UniProt Q86UK7) | 0.127 | -0.15
ZMPSTE24_O75844_324_QGCKNEEVLAVLGHELGHWK (UniProt O75844) | -0.369 | -0.857
ZNF512B_Q96KM6_6_TDPFCVGGR (UniProt Q96KM6) | -0.0569 | 0.0733
ZFYVE26_Q68DK2_60_RVEDILQALVVCPNLLR (UniProt Q68DK2) | -0.114 | -0.191
ZFR_Q96KR1_384+387+391_CELCDVSCTGADAYAAHIR (UniProt Q96KR1) | -0.0237 | -0.171
ZNF687_Q8N1G0_91_NTVCPEQSEALAGGSAGDGAQAAGVTK (UniProt Q8N1G0) | -0.392 | -0.0527
ZMYM3_Q14202_1326_SCIAESPLWYSVIPMDR (UniProt Q14202) | 0.107 | 0.274

Exported as a markdown table: part of the list above.

| Target | probe-labelled cysteine peptide fold change (10 µM) | probe-labelled cysteine peptide fold change (50 µM) |
| --- | --- | --- |
| ZMYM3_Q14202_1073_CWVQSK (UniProt Q14202) | -0.162 | -0.435 |
| ZMYM3_Q14202_1197_VEEEHLWECK (UniProt Q14202) | 0.148 | -0.0344 |
